In patent US11649228B2, “Zinc indicators for cellular imaging” (The Board of Regents of the University of Texas System, priority 2018, dated 2023):

Test: Zn^2+ titration of ZIGIRs by fluorescence emission (Hill plot)
Format: binding
Method: UV-Vis spectra were recorded in a 1-cm path quartz cell on a Shimadzu 2401 PC spectrometer. Fluorescence excitation and emission spectra were recorded on a Fluorolog 3 spectrometer (Jobin-Yvon Horiba, Edison, N.J.). Zinc titration was performed by adding ZIGIRs (0.5 μM final concentration) to buffered Zn^2+ solutions containing 100 mM HEPES (pH 7.4). Nitrilotriacetic acid (NTA, 10 mM) and varying concentrations of ZnSO4 (0-9 mM) were mixed to reach free Zn^2+ concentrations between 0.1 nM and 40 nM (Li et al., 2011). Zn^2+ concentrations above 40 nM were controlled by iminodiacetate (IDA, 10 mM) and varying amounts of ZnSO4 (0-9.7 mM) in 100 mM HEPES (pH 7.4; Sasaki et al., 2011). To determine Zn^2+ binding dissociation constants (Kd(Zn^2+)), the Zn^2+ titration data were fitted to the least square exponential equation (Prism 7). Fluorescence quantum yields of ZIGIRs at pH 7.5 were determined using rhodamine 6G as the reference (Φfl=0.94 in MeOH; Magde et al., 2002). An example in shown FIGS. 11A0B. To examine the pH sensitivity of ZIGIRs, the fluorescence emission spectra was recorded from pH 3-9.4 in either nominally Zn^2+-free solutions containing 5 mM iminodiacetate or in 25 μM ZnSO4 solutions. […]

Row | SMILES | nH (Hill coefficient)
1 | CN=c1ccc2c(-c3ccc(NCCN(CCc4ccccn4)Cc4ccccn4)cc3C(=O)O)c3ccc(NC)cc3oc-2c1 [ZIGIR-1] | 0.99
2 | CN(C)c1ccc2c(-c3ccc(NCCN(CCc4ccccn4)Cc4ccccn4)cc3C(=O)[O-])c3ccc(=[N+](C)C)cc-3oc2c1 [ZIGIR-2] | 1.03
